According to article PMC6470148:
No constants are given. Whether binding was seen depends on the method and setting. Binding seen in cells or lysates may run through a third protein. Some entries that bind do so weakly or less than the wild type. For some of these results: Sequences can lack the tags named with a protein.

Protein sequences, listed by entry. Tags and fused reporters are not part of them. Lines headed by an entry give the natural chain unless they say otherwise; changes in a name come on top.
UniProt Q9EQK5: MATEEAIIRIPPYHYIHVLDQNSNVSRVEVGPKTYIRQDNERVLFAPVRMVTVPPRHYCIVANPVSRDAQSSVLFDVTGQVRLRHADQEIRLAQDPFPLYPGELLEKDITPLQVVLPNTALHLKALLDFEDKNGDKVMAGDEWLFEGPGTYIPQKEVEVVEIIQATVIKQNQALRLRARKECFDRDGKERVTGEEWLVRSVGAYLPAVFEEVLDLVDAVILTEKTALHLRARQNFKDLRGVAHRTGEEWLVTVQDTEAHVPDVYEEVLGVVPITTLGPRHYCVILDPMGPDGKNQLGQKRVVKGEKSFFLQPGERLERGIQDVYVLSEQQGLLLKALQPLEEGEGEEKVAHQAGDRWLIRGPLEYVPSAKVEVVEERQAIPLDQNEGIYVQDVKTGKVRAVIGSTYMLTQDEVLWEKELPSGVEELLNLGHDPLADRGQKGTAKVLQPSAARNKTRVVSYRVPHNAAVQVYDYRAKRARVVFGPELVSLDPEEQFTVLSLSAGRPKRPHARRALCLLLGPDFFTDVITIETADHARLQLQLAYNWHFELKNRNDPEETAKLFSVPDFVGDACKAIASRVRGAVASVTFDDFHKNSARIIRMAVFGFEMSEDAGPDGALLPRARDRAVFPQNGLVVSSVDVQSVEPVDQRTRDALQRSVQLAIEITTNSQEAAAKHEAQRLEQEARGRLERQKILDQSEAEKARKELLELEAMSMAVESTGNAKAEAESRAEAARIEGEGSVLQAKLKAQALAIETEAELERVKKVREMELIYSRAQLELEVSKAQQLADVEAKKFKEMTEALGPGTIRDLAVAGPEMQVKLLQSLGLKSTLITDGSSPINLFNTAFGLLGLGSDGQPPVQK
UniProt Q62406: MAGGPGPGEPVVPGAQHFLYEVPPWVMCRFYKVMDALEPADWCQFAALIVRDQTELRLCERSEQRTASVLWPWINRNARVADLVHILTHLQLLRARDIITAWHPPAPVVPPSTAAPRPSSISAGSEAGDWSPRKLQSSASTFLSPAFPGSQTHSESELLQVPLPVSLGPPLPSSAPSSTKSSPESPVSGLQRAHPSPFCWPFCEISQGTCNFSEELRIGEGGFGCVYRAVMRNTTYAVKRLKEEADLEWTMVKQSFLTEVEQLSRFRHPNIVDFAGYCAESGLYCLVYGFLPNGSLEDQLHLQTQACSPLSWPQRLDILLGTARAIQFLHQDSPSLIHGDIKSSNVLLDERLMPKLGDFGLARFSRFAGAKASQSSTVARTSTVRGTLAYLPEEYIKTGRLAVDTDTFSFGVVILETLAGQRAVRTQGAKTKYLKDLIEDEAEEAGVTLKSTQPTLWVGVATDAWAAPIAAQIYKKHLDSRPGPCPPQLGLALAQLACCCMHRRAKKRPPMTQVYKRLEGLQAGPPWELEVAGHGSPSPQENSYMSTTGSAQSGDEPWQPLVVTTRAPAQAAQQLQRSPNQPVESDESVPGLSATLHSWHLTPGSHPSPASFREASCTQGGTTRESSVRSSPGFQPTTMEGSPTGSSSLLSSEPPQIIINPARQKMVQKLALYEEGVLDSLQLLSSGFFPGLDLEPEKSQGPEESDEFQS

Legend:
HA-tagged TRAF6 = molecular target: T1, HA-tagged TRAF6 (UniProt P70196); assay: co-IP; HEK293T cells transfected with tagged constructs; lysates precipitated with anti-Flag or anti-HA antibody and protein A/G beads, western blot
T1 sequence: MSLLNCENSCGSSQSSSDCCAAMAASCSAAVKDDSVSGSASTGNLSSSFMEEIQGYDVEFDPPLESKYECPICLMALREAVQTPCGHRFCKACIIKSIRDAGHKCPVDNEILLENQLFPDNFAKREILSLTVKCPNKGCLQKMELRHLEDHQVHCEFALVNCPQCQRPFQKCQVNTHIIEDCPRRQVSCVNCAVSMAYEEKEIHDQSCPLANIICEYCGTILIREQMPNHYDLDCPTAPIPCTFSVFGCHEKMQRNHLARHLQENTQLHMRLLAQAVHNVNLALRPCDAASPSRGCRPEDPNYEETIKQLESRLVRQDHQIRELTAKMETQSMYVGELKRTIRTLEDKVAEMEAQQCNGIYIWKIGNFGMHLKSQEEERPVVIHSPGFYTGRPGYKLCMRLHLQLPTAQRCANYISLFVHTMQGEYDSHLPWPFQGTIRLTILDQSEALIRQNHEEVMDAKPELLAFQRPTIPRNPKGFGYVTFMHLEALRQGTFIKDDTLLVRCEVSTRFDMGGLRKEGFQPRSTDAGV

[1] = molecular target: Major vault protein (endogenous, murine macrophages) (mouse (endogenous in BMDMs)) (UniProt Q9EQK5); assay: co-sedimentation; cell fractionation of macrophages by ultracentrifugation: post-nuclear supernatant (20,000g) spun at 100,000g for 1 h, vault pellet (P fraction) and supernatant (S fraction) blotted; with or without LPS
[2] = molecular target: Interleukin 1 receptor-associated kinase 1 (endogenous, BMDMs) (mouse (endogenous in BMDMs)) (UniProt Q62406); assay: co-IP; endogenous proteins in lysates of murine BMDMs, with or without LPS (100 ng/ml), WT or MVP-deficient cells; antibody (anti-TRAF6) at 4 °C overnight, protein A/G beads, western blot
IRAK1 in HEK293T cells = IRAK1 in HEK293T cells (UniProt Q62406); assay: co-IP; HEK293T cells transfected with tagged constructs; lysates precipitated with anti-Flag or anti-HA antibody and protein A/G beads, western blot
[3] = molecular target: Flag-tagged MVP, full length (UniProt Q9EQK5); assay: as above
[4] = molecular target: Flag-tagged MVP, full length (UniProt Q9EQK5); assay: co-sedimentation; cell fractionation by ultracentrifugation (100,000g pellet) of HEK293T cells co-transfected with Flag-MVP and HA-TRAF6

Flag-tagged MVP-(481–685) (from UniProt Q9EQK5 481-685) (domain or fragment)
binding (HA-tagged TRAF6): binds

Flag-tagged MVP-(1–480) (from UniProt Q9EQK5 1-480) (domain or fragment)
binding (HA-tagged TRAF6): binds

B1: TRAF2 (endogenous, macrophages) (protein, UniProt P39429 1-501)
chain: MAAASVTSPGSLELLQPGFSKTLLGTRLEAKYLCSACKNILRRPFQAQCGHRYCSFCLTSILSSGPQNCAACVYEGLYEEGISILESSSAFPDNAARREVESLPAVCPNDGCTWKGTLKEYESCHEGLCPFLLTECPACKGLVRLSEKEHHTEQECPKRSLSCQHCRAPCSHVDLEVHYEVCPKFPLTCDGCGKKKIPRETFQDHVRACSKCRVLCRFHTVGCSEMVETENLQDHELQRLREHLALLLSSFLEAQASPGTLNQVGPELLQRCQILEQKIATFENIVCVLNREVERVAVTAEACSRQHRLDQDKIEALSNKVQQLERSIGLKDLAMADLEQKVSELEVSTYDGVFIWKISDFTRKRQEAVAGRTPAIFSPAFYTSRYGYKMCLRVYLNGDGTGRGTHLSLFFVVMKGPNDALLQWPFNQKVTLMLLDHNNREHVIDAFRPDVTSSSFQRPVSDMNIASGCPLFCPVSKMEAKNSYVRDDAIFIKAIVDLTGL
binding [1]: no binding

B2: TRAF3 (endogenous, macrophages) (protein, UniProt Q60803 1-567)
chain: MESSKKMDAAGTLQPNPPLKLQPDRGAGSVLVPEQGGYKEKFVKTVEDKYKCEKCRLVLCNPKQTECGHRFCESCMAALLSSSSPKCTACQESIIKDKVFKDNCCKREILALQVYCRNEGRGCAEQLTLGHLLVHLKNECQFEELPCLRADCKEKVLRKDLRDHVEKACKYREATCSHCKSQVPMIKLQKHEDTDCPCVVVSCPHKCSVQTLLRSELSAHLSECVNAPSTCSFKRYGCVFQGTNQQIKAHEASSAVQHVNLLKEWSNSLEKKVSLLQNESVEKNKSIQSLHNQICSFEIEIERQKEMLRNNESKILHLQRVIDSQAEKLKELDKEIRPFRQNWEEADSMKSSVESLQNRVTELESVDKSAGQAARNTGLLESQLSRHDQMLSVHDIRLADMDLRFQVLETASYNGVLIWKIRDYKRRKQEAVMGKTLSLYSQPFYTGYFGYKMCARVYLNGDGMGKGTHLSLFFVIMRGEYDALLPWPFKQKVTLMLMDQGSSRRHLGDAFKPDPNSSSFKKPTGEMNIASGCPVFVAQTVLENGTYIKDDTIFIKVIVDTSDLPDP
binding [1]: no binding

B3: TNF receptor-associated factor 6 (endogenous, murine macrophages) (protein, UniProt P70196 1-530)
chain: T1 sequence
binding [2]: binds | binding [1]: binds

B4: HA-tagged TRAF6 (protein, UniProt P70196 1-530)
chain: T1 sequence
binding (IRAK1 in HEK293T cells): binds | binding [3]: binds | binding [4]: binds

B5: HA-tagged C-terminal fragment of TRAF6 (332–530) (domain or fragment, UniProt P70196 332-530)
chain: SMYVGELKRTIRTLEDKVAEMEAQQCNGIYIWKIGNFGMHLKSQEEERPVVIHSPGFYTGRPGYKLCMRLHLQLPTAQRCANYISLFVHTMQGEYDSHLPWPFQGTIRLTILDQSEALIRQNHEEVMDAKPELLAFQRPTIPRNPKGFGYVTFMHLEALRQGTFIKDDTLLVRCEVSTRFDMGGLRKEGFQPRSTDAGV
binding (IRAK1 in HEK293T cells): binds
